Reference: PubChem BioAssay AID2711 (National Center for Advancing Translational Sciences (NCATS), 2010)
Inconclusive means that the source gave no clear call. Such entries were picked first, then a sample of the others. A potency beside an inconclusive call is a rough fit, not a confirmed value. Calls of active or inactive are those of the source. Calls come from the whole dose curve; as a rule, active = well fitted inhibition curve with a large enough effect; inconclusive = small, poorly fitted or top-dose-only effect; inactive = no such curve, though single readings can be large or run the other way.

Test: Counterscreen for RECQ1 Inhibitors: ADP Fluorescence Polarization Displacement Assay; note: nearly all actives have a fitted effect of over 45% in size
Conditions: series mostly up to 228 µM
Outline: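 Probe: BODIPY Texas Red-ADP 500 nM; enzyme: RECQ1 300 nM; buffer 25 mM Tris-HCl pH 8.0, 5 mM NaCl, 2 mM MgCl2, 1 mM DTT, 0.01% Tween-20, 2.5 ug/ml poly(dI-dC). 15 min RT, endpoint FP.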
Potency is the fitted concentration of half-maximal effect.

Question: With `COCCCN(C(=O)c1cc2c(s1)CCC2)c1c(N)n(Cc2ccccc2)c(=O)[nH]c1=O` as the compound, how does the Potency read?
Answer: inconclusive: 17.8 µM [inhibitor, partial curve, poor fit]

Question: With `COc1ccc(C(=O)Cn2c3ccccc3n3nc(CCC(=O)O)c(=O)nc23)cc1OC` as the compound, how does the Potency read?
Answer: inconclusive: 4.47 µM [inhibitor, full curve, poor fit]

Question: For `Cc1ccc(C(=O)Nc2nc(-c3cccnc3)cs2)o1`, which Potency is on record?
Answer: inactive

Question: With `O=C(O)CCC(NC(=O)C1CCCN1C(=O)OCc1ccccc1)C(=O)O` (configuration not stated) as the compound, how does the Potency read?
Answer: inconclusive: 44.7 µM [inhibitor, partial curve, poor fit]

Question: With `O=C(NC(Cc1ccccc1)C(=O)O)/C(=C/c1ccccc1)NC(=O)c1cccc(Br)c1` (configuration not stated) as the compound, how does the Potency read?
Answer: inconclusive: 44.7 µM [inhibitor, partial curve, poor fit]

Question: With `Cc1[nH]c2ccccc2c1/C=N/NC(=O)c1cccc([N+](=O)[O-])c1` as the compound, how does the Potency read?
Answer: inactive

Question: With `O=C(O)C/C(=C\c1ccc(N2CCOCC2)c([N+](=O)[O-])c1)c1nc2ccccc2s1` as the compound, how does the Potency read?
Answer: inconclusive: 70.8 µM [inhibitor, partial curve, poor fit]

Question: For `COc1ccc(CC(=O)Nc2ccc(C(=O)Nc3ccccc3C(=O)O)cc2)cc1OC`, which Potency is on record?
Answer: inactive

Question: With `COc1ccc2c(c1)CCc1c(C(=O)N(C)c3ccccc3)noc1-2` as the compound, how does the Potency read?
Answer: inconclusive: 5.62 µM [inhibitor, partial curve, poor fit]

Question: Which Potency does the source give for `O=C(OCC1OC(OC(=O)c2cc(O)c(O)c(OC(=O)c3cc(O)c(O)c(O)c3)c2)[C@@H](OC(=O)c2cc(O)c(O)c(OC(=O)c3cc(O)c(O)c(O)c3)c2)C(OC(=O)c2cc(O)c(O)c(OC(=O)c3cc(O)c(O)c(O)c3)c2)C1OC(=O)c1cc(O)c(O)c(OC(=O)c2cc(O)c(O)c(O)c2)c1)c1cc(O)c(O)c(OC(=O)c2cc(O)c(O)c(O)c2)c1` (some centres not stated) here?
Answer: inconclusive: 0.224 µM [inhibitor, full curve]

Question: With `CC(=O)Nc1ccc(NC(=O)C(OC(=O)c2ccccc2)C(OC(=O)c2ccccc2)C(=O)O)cc1` (configuration not stated) as the compound, how does the Potency read?
Answer: inconclusive: 15.8 µM [inhibitor, full curve, poor fit]

Question: Which Potency does the source give for `N=C1S/C(=C\c2ccc(-c3ccccc3C(=O)O)o2)C(=O)N1c1ccc2c(c1)OCO2` here?
Answer: inconclusive: 70.8 µM [inhibitor, partial curve, poor fit]

Question: With `Cc1ccc(O)c(N=Cc2cc(Cc3ccccc3)cc([N+](=O)[O-])c2O)c1` as the compound, how does the Potency read?
Answer: active: 44.7 µM

Question: Which Potency does the source give for `C#CCn1c(=NC(=O)c2ccc(S(=O)(=O)N3CCc4ccccc4C3)cc2)sc2cc(S(N)(=O)=O)ccc21` here?
Answer: inconclusive: 25.1 µM [inhibitor, partial curve, poor fit]

Question: Which Potency does the source give for `CCCCN(c1ccccc1)S(=O)(=O)c1ccc2c(c1)CCN2C(=O)CCC(=O)O` here?
Answer: inconclusive: 100 µM [inhibitor, single point]

Question: For `CCOc1ccc2nc(SCC(=O)N3c4ccccc4Sc4ccccc43)sc2c1`, which Potency is on record?
Answer: inactive

Question: With `Cn1cnnc1Sc1ccc(/C=C(\CC(=O)O)c2nc3ccccc3s2)cc1[N+](=O)[O-]` as the compound, how does the Potency read?
Answer: inactive

Question: Which Potency does the source give for `Cc1noc(C)c1COc1ccc(C(=O)Nc2ccccc2)cc1` here?
Answer: inconclusive: 22.4 µM [inhibitor, full curve, poor fit]

Question: With `Cc1ccc(S(=O)(=O)N(C)C)cc1NC(=O)COC(=O)c1n[nH]c(=O)c2ccccc12` as the compound, how does the Potency read?
Answer: inconclusive: 28.2 µM [inhibitor, single point]

Question: With `O=C(/C=C/c1ccccc1F)c1ccoc1` as the compound, how does the Potency read?
Answer: inactive

Question: Which Potency does the source give for `COn1c(SCc2cccc(Cl)c2)nc2ccccc2c1=O` here?
Answer: inconclusive: 39.8 µM [inhibitor, partial curve, poor fit]

Question: With `O=c1cc(O)cc(/C=C/c2ccc(O)c(O)c2)o1` as the compound, how does the Potency read?
Answer: inconclusive: 4.47 µM [inhibitor, full curve, poor fit]

Question: With `COc1ccc(Br)cc1/C=c1\sc2nc(-c3ccco3)nn2c1=O` as the compound, how does the Potency read?
Answer: inconclusive: 0.447 µM [inhibitor, full curve, poor fit]

Question: For `CC(NC(=O)/C(=C/c1cccc([N+](=O)[O-])c1)NC(=O)c1ccco1)C(=O)O` (configuration not stated), which Potency is on record?
Answer: inactive

Question: With `CC1(C)CCCN(C(=O)c2coc(=O)c(Br)c2)C1` as the compound, how does the Potency read?
Answer: inactive

Question: For `COc1ccc(N2CCN(C(=O)c3ccc4c(=O)n(CCc5ccc(OC)c(OC)c5)c(=O)[nH]c4c3)CC2)cc1`, which Potency is on record?
Answer: inconclusive: 112 µM [inhibitor, partial curve, poor fit]

Question: With `Cc1cc(C)cc(SCc2noc(C(=O)NCC3CCCO3)c2C(=O)O)c1` (configuration not stated) as the compound, how does the Potency read?
Answer: inconclusive: 5.62 µM [inhibitor, full curve]

Question: For `CCn1c(CSc2nc3ccccc3s2)nnc1SCC(=O)c1ccc(O)c(O)c1`, which Potency is on record?
Answer: inconclusive: 2.51 µM [inhibitor, full curve, poor fit]

Question: For `O=C(O)COc1ccc(/C=N/NC(=O)c2ccc(-c3csc(Nc4ccc(Cl)cc4)n3)cc2)cc1`, which Potency is on record?
Answer: inconclusive: 10 µM [inhibitor, partial curve]

Question: Which Potency does the source give for `O=C(O)C1Cc2ccccc2CN1C(=O)CSc1nnc2ccccn12` (configuration not stated) here?
Answer: inconclusive: 39.8 µM [inhibitor, partial curve, poor fit]

Question: For `CC(C)(C)c1ccc(-c2nnc(SCCC#N)n2C2CCCC2)cc1`, which Potency is on record?
Answer: inactive

Question: For `Cc1nn(CC(=O)NC2C(=O)N3C(C(=O)O)=C(CSc4nnnn4C)CSC23)cc1Br` (configuration not stated), which Potency is on record?
Answer: inconclusive: 63.1 µM [inhibitor, single point]
